No constants are given. Whether binding was seen depends on the method and setting. In cells and extracts the contact can be indirect. Some results given as binding are weak or reduced against the parent protein; the word gives no strength. For some of these results: Where a sequence is shown, tags or fusion partners need not be part of it. One block for each molecule: values may come before it.
Assays:
MBP-B55β (Xenopus) = target: T1, MBP-B55β (Xenopus) (UniProt A1L3L9); assay: pull-down; about 10 μg MBP-B55 on amylose beads (20 μl) incubated in interphase Xenopus egg extracts (40 μl), 30 min, room temperature; immunoblotting; control: amylose beads not conjugated with proteins; only the target purified
T1 sequence: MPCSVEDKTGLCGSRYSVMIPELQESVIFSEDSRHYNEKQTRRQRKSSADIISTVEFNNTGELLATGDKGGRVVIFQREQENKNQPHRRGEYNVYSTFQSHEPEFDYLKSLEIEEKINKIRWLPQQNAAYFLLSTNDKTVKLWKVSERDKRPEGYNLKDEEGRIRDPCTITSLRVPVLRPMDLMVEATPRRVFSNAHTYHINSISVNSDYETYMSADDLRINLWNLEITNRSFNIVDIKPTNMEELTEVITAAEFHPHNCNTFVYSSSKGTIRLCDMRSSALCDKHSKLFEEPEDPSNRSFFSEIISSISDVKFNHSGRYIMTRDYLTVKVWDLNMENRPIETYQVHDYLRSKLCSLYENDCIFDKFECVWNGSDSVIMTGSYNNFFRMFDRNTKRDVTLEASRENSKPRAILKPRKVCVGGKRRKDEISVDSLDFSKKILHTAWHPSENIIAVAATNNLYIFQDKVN

Sequences of proteins named here, by UniProt entry; tags and fusion partners are left off.
UniProt P15927: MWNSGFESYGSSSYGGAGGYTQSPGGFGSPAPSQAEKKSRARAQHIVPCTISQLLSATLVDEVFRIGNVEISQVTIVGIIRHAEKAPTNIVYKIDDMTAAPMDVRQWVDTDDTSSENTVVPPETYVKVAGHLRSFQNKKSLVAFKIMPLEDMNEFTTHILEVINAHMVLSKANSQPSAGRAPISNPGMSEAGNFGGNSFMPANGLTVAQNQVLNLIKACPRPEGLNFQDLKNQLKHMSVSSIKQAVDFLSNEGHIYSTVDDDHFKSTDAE
UniProt P50533: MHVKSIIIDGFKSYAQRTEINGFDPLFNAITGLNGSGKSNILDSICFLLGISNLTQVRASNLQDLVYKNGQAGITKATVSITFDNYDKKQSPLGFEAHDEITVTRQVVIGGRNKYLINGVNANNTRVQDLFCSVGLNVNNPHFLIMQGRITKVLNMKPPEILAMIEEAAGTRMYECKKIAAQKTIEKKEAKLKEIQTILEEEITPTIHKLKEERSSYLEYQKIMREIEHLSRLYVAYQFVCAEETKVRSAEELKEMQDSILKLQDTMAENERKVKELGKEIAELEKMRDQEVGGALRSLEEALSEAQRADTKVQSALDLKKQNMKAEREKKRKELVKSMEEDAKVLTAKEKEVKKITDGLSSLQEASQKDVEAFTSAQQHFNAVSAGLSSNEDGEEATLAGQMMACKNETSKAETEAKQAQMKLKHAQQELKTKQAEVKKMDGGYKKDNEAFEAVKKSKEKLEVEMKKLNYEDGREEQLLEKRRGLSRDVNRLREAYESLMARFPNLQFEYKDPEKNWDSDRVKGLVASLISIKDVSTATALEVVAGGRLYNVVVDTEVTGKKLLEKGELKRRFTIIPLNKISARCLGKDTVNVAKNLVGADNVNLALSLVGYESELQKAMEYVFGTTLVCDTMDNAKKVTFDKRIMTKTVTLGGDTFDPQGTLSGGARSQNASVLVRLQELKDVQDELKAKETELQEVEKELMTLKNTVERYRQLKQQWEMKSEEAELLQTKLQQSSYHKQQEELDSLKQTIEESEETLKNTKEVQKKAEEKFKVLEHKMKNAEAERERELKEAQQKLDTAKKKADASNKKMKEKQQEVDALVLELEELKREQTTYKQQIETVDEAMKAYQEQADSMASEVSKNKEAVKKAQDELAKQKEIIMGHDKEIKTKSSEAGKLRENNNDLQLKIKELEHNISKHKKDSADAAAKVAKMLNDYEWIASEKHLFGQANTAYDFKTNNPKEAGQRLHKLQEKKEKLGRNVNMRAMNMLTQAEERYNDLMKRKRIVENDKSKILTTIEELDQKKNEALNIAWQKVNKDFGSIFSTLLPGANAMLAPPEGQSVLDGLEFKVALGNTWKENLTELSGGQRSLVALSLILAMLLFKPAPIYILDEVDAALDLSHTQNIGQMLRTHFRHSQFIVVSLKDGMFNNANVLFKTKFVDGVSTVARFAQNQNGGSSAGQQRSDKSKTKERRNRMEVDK
UniProt P70032: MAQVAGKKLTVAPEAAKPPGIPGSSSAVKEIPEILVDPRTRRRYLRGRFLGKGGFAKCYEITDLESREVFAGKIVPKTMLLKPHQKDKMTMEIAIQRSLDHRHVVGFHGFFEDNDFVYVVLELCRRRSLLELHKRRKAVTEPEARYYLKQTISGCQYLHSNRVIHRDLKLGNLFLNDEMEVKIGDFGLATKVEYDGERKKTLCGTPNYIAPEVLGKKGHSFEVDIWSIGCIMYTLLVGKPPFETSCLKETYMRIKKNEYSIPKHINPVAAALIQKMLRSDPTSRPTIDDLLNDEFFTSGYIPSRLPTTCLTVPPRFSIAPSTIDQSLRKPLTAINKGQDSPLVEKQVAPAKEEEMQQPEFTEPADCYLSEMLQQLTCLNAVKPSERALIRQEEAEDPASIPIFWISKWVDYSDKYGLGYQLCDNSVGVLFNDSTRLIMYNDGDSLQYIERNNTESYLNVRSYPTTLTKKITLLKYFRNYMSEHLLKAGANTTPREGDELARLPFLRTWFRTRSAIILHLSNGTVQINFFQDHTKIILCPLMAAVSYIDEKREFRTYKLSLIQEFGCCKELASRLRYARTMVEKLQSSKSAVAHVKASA
UniProt Q6NTJ3: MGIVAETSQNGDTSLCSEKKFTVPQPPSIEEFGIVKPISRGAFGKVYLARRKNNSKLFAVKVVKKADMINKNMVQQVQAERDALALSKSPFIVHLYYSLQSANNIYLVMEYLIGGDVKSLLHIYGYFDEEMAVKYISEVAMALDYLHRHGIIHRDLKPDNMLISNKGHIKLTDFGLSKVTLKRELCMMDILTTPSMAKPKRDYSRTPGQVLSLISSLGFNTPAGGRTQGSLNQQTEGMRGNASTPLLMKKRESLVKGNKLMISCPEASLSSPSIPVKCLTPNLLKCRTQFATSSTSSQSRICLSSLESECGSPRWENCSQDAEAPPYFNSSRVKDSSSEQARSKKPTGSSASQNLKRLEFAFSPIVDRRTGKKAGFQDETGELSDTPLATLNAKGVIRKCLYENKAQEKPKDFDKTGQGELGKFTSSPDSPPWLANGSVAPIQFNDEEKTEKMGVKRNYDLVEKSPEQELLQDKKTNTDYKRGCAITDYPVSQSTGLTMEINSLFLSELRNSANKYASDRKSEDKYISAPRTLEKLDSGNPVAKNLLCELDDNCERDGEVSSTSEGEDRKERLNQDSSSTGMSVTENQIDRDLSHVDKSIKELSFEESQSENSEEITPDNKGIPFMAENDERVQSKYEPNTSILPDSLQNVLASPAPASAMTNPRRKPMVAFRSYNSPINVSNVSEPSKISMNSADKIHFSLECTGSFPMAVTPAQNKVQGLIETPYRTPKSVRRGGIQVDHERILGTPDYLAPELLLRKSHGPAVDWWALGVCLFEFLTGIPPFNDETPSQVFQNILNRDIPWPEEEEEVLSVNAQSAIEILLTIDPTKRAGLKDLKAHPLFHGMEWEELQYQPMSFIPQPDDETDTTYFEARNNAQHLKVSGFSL

HA-B55α = target: T2, HA-B55α (UniProt P63151); assay: co-IP; HA IP from lysates of HeLa cells expressing HA-B55α, treated with or without HU (1 mM, 24 h); immunoblotting for B55α and RPA2; control IP with blank beads
T2 sequence: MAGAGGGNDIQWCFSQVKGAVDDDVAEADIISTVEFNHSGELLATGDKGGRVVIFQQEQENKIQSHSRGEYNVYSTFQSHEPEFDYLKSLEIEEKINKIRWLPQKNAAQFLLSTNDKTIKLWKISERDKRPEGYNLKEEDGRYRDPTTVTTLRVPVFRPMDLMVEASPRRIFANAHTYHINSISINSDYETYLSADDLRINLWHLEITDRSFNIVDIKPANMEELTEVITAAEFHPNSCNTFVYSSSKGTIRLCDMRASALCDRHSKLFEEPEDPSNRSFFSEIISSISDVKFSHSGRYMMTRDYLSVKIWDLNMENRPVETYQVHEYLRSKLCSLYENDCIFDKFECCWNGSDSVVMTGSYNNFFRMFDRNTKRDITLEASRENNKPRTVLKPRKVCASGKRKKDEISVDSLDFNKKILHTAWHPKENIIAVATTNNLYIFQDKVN

[1] = target: T3, B55α (endogenous, human cells) (human (endogenous in HeLa)) (UniProt P63151); assay: co-IP; endogenous proteins in HeLa cell lysates; primary antibody (RPA2 or B55α) on anti-mouse or anti-rabbit magnetic beads, 1 h; immunoblotting; control IP with blank beads; cells also pre-treated with HU (1 mM, 24 h) or mock-treated
T3 sequence: T2 sequence

[2] = target: RPA2 (human (endogenous in HeLa)) (UniProt P15927); assay: as above

Molecule: Condensin subunit Smc2 (from UniProt P50533 1-1203)
binding (MBP-B55β (Xenopus)): binds

Molecule: RPA2 (from UniProt P15927 1-270)
binding (HA-B55α): binds | binding [1]: binds

Molecule: mitotic kinase Plk1 (from UniProt P70032 1-598) (enzyme)
binding (MBP-B55β (Xenopus)): binds

B1: B55α (endogenous, human cells) (protein, UniProt P63151 1-447)
chain: T2 sequence
binding [2]: binds

Other lines, results leading:

binding (MBP-B55β (Xenopus)): binds
Molecule: mitotic kinase Mastl (from UniProt Q6NTJ3 1-887) (enzyme)

binding (MBP-B55β (Xenopus)): binds
B2: DNA replication protein Mcm2 (protein, UniProt P55861 1-886)
chain: MADSSESFNIATSPRAGSRRDALTSSPGRDLPPFEDESEGMFGDGVVPEEEEDGEELIGDAMERDYRPISELDRYEVEGLDDEEDVEDLTASQREAAEQSMRMRDREMGRELGRMRRGLLYDSDEEEEDRPARKRRMAERAAEGAPEEDEEMIESIENLEDMKGHTVREWVSMAATRLEIYHRFKNFLRTHVDEHGHNVFKEKISDMCKENKESLPVNYEDLAAREHVLAYFLPEAPAEMLKIFDEAAKEVVLVMYPKYDRIAREIHVRISHLPLVEELRSLRQLHLNQLIRTSGVVTCCTGVLPQLSMVKYNCNKCNFILGPFFQSQNQEVRPGSCPECQSFGPFEINMEETVYQNYQRITIQESPGKVAAGRLPRSKDAILLADLVDSCKPGDEIELTGIYHNNYDGSLNTANGFPVFATVILANHITKKDDKVAVGELTDEDVKAIVALSKDERIGERIFASIAPSIYGHEDIKRGLALALFGGEAKNPGGKHKVRGDINVLLCGDPGTAKSQFLKYVEKVASRAVFTTGQGASAVGLTAYVQRHPVTKEWTLEAGALVLADRGVCLIDEFDKMNDQDRTSIHEAMEQQSISISKAGIVTSLQARCTVIAASNPIGGRYDPSLTFSENVDLTEPIVSRFDILCVVRDTVDPVQDEMLARFVVSSHIKHHPSSKDIANGDAAEFALPNTFGVEALPQEVLKKYIMYAKEKIRPKLNQMDQDKVAKMYSDLRKESMATGSIPITVRHIESMIRMAEAHARMHLRDYVVEDDVNMAIRVMLESFIDTQKFSVMRSMRKTFARYLAFRRDNNELLLFVLKQLIAEQVTYQRNRYGAQQDTIEVPEKDLVDKARQINIHNLSAFYDSDLFKMNKFTHDVKKKLIIQQF
